Results taken from PubChem BioAssay AID485314 (National Center for Advancing Translational Sciences (NCATS), 2010).
The whole screen tested about 340,000 compounds, of which about 4,500 (1.3%) were called active. The shares of active, inactive and inconclusive entries below differ from those in the screen. The call rests on the fitted dose curve; in most records, active means well fitted inhibition curve with a large enough effect; inconclusive means small, poorly fitted or top-dose-only effect, or another doubt; inactive means no such curve, though single readings can be large or run the other way. A potency beside an inconclusive call is a rough fit, not a confirmed value.

These compounds were tested against DNA polymerase beta (Homo sapiens) (UniProt P06746) (assay: qHTS Assay for Inhibitors of DNA Polymerase Beta). Conditions: Pol beta primer extension/strand displacement, fluorescence kinetic; activity change, negative = inhibition: at 114 µM (top of the series).
Outline: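 10 nM enzyme + cpd, 15 min RT; start with substrate 50 nM final; read 0 min and after 10 min RT. Corrected, normalized data; 4-parameter Hill curve fit.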
On the % scale 0 is the no-effect control and ±100 the full control effect; potency means the concentration at half of the fitted maximal effect.

Row | SMILES | Potency | activity change, negative = inhibition
1 | COc1cccc(/C=C2/NC(=O)N(CC(=O)Nc3ccc(C)cc3)C2=O)c1OCc1cccc(C(=O)O)c1 | active: 50.1 µM | 
2 | COc1ccc(CCN2C(=O)CC(C(N)=O)SC2=Nc2ccccc2)cc1OC (stereo not drawn) | inconclusive: 39.8 µM [inhibitor, partial curve, poor fit] | 
3 | O=C(N/N=C/c1sc(=O)n(Cc2ccc(Br)cc2)c1Cl)c1ccco1 | inconclusive: 14.1 µM [inhibitor, single point] | 
4 | COc1cc(-c2nnc(-c3cccnc3)o2)cc(OC)c1OC | inconclusive: 89.1 µM [inhibitor, single point] | 
5 | CCC(C)n1c(=O)c2sccc2n2c(CCCC(=O)N3CCN(c4ccccc4)CC3)nnc12 (stereo not drawn) | inactive | 
6 | COc1cccc(Cc2nc3ccccc3nc2SCC(=O)Nc2cccc(C)c2)c1 | inactive | 
7 | Cc1ccc(Cn2cc(S(=O)(=O)c3cccc(C)c3)c(=O)c3cc(F)c(N4CCOCC4)cc32)cc1 | inactive | 
8 | O=C(Nc1cc(-c2ccccc2)sc1C(=O)O)c1cccc(F)c1 | active: 70.8 µM | 
9 | Cc1ccc(-c2cc(C(=O)N3CCOCC3)c3ccccc3n2)cc1 | inconclusive: 39.8 µM [inhibitor, single point] | 
10 | Cc1ccc2cc(C)c(N3CCN(c4ccccn4)CC3)nc2c1 | inconclusive: 8.91 µM [inhibitor, full curve, poor fit] | 
11 | CCn1c2ccccc2c2cc(CN3CCN(Cc4ccc(Br)cc4)CC3)ccc21 | inactive | 
12 | O=C1NC(=O)/C(=C\c2ccc(Sc3ccc(Cl)cc3)o2)N1 | active: 35.5 µM | 
13 | COc1ccccc1C(=O)NC(C)C(c1cccs1)N1CCOCC1 (stereo not drawn) | inconclusive: 0.126 µM [inhibitor, full curve, poor fit] | 
14 | Cc1c(Cl)cccc1NC(=O)CNc1cccc(S(=O)(=O)N(C)C)c1 | active: 79.4 µM | 
15 | O=C(O)[C@@H]1CCCN1C(=O)CCc1c[nH]c2ccccc12 | inconclusive: 25.1 µM [inhibitor, single point] | 
16 | COCCNC(=O)c1cc2ncc(Br)cn2n1 | inactive | 
17 | CC(C)C(NS(=O)(=O)c1ccc2c(c1)C(C)(C)C(=O)N2C)C(=O)NCc1ccc(F)cc1 (stereo not drawn) | inconclusive: 0.141 µM [inhibitor, full curve, poor fit] | 
18 | CS(=O)(=O)N1CCN(c2ccc([N+](=O)[O-])c(NCc3ccc(Cl)cc3)c2)CC1 | inconclusive: 2.51 µM [inhibitor, partial curve] | 
19 | COc1ccc(C(=O)Nc2cccc(C(=O)OCc3cc(=O)n4nc(C5CC5)sc4n3)c2)cc1 | inconclusive: 12.6 µM [inhibitor, single point] | 
20 | COc1ccc(N(C(=O)CNC(=O)c2ccco2)C(C(=O)NC2CCCCC2)c2cccnc2)cc1 (stereo not drawn) | inactive | 
21 | Cc1c(C(=O)Nc2ccccc2Br)oc2ccc(S(=O)(=O)N3CCCCCC3)cc12 | inactive | 
22 | COC(=O)c1ccc2c(c1)C(C)(C)C(/C=C/c1ccc(OC)c(OC)c1OC)=[N+]2C | inconclusive: 89.1 µM [inhibitor, single point] | 
23 | Cc1cc2nc(-c3ccc(OCc4ccccc4C)cc3)cc(C(F)(F)F)n2n1 | inactive | 

Row | SMILES | Potency | activity change, negative = inhibition
24 | COc1cccc(-n2nnc3c(=O)n(Cc4cccc(C)c4)cnc32)c1 | inconclusive: 2.82 µM [inhibitor, full curve, poor fit] | 
25 | C/C=C1\C(OC2OC(CO)C(O)C(O)C2O)OC=C(C(=O)OC)C1CC(=O)OCC1C(C)C(OC(=O)CC2C(C(=O)OC)=COC(OC3OC(CO)C(O)C(O)C3O)/C2=C\C)CC1C(CO)CO (stereo not drawn) | active: 25.1 µM | 
26 | O=C(NN1C(=O)c2ccc(-c3ccc4c(c3)C(=O)N(NC(=O)c3cccnc3)C4=O)cc2C1=O)c1cccnc1 | inconclusive: 8.91 µM [inhibitor, full curve] | 
27 | CCn1c(/C=C2/C(=O)N(C)c3ccccc32)nc2ccccc2c1=O | inconclusive: 3.16 µM [inhibitor, partial curve, poor fit] | 
28 | Cn1c(=O)c(C(=O)CCl)c(N)n(CC2CC2)c1=O | inconclusive: 89.1 µM [inhibitor, single point] | 
29 | C=CCSC1=N/C(=C\c2ccc(C)o2)C(=O)S1 | inconclusive: 22.4 µM [inhibitor, single point] | 
30 | Cc1ccc2nc(CN3CCN(C(=O)Nc4ccc(F)cc4)CC3)oc2c1 | inactive | 
31 | COc1cc([N+](=O)[O-])ccc1-c1ccc(/C=N/NC(=O)c2ccccc2O)o1 | inconclusive: 4.47 µM [inhibitor, full curve] | 
32 | COc1ccc(N(Cc2nnc3n2CCCCC3)C(=O)Nc2ccccc2)cc1 | inconclusive: 3.55 µM [inhibitor, full curve, poor fit] | 
33 | COc1ccc(-c2nc3nc(C)cc(C)n3c2Nc2c(C)cccc2C)cc1 | inconclusive: 89.1 µM [inhibitor, single point] | 
34 | O=S(=O)(c1ccc2ccccc2c1)N1CCCCCC1 | inactive | 
35 | C/C(=N\Nc1ccc(S(N)(=O)=O)cc1[N+](=O)[O-])c1cccs1 | active: 11.2 µM | 
36 | Cc1cc(C)cc(OCCSc2nc3ccc(NC(=O)c4ccc5c(c4)OCO5)cc3s2)c1 | inactive | 
37 | Cc1ccnc2nc(C(=O)OCC(=O)N(CC(C)C)CC(C)C)nn12 | inconclusive: 14.1 µM [inhibitor, partial curve, poor fit] | 
38 | Cc1ccnc(NS(=O)(=O)c2ccc(NC(=O)C3COc4ccccc4O3)cc2)n1 (stereo not drawn) | inconclusive: 89.1 µM [inhibitor, single point] | 
39 | O=C(Nc1ccccc1)C1=C[C@@H](c2ccc(C(F)(F)F)cc2)C[C@@H](OCc2ccc(CO)cc2)O1 | inconclusive: 89.1 µM [inhibitor, single point] | 
40 | CC1=NN(c2ccc(C(=O)O)cc2)C(=O)CC1 | inconclusive: 39.8 µM [inhibitor, single point] | 
41 | CCCN(CCC)C1=N/C(=C\c2ccco2)C(=O)N1c1ccccc1 | inconclusive: 14.1 µM [inhibitor, full curve, poor fit] | 
42 | CN1CCN(CCCCOc2ccccc2-c2ccccc2)CC1 | inconclusive: 89.1 µM [inhibitor, single point] | 
43 | O=C(CSc1ccccc1Cl)N1CCC(c2nc3ccccc3s2)CC1 | inconclusive: 35.5 µM [inhibitor, single point] | 
44 | CCOc1cc(/C=C2\CCCc3c2nc2ccccc2c3C(=O)O)ccc1OC |  | inconclusive: -31.3% [inhibitor]
45 | Cn1c2ccccc2n2c(=O)cc(-c3ccccc3)c(C#N)c12 | active: 44.7 µM | 
46 | O=C(O)c1cccc(N(CCO)CCO)c1 | inactive | 

Arranged by heavy-atom count (falling): part of the list above
Row | SMILES | Potency | activity change, negative = inhibition
30 | Cc1ccc2nc(CN3CCN(C(=O)Nc4ccc(F)cc4)CC3)oc2c1 | inactive | 
37 | Cc1ccnc2nc(C(=O)OCC(=O)N(CC(C)C)CC(C)C)nn12 | inconclusive: 14.1 µM [inhibitor, partial curve, poor fit] | 
42 | CN1CCN(CCCCOc2ccccc2-c2ccccc2)CC1 | inconclusive: 89.1 µM [inhibitor, single point] | 
29 | C=CCSC1=N/C(=C\c2ccc(C)o2)C(=O)S1 | inconclusive: 22.4 µM [inhibitor, single point] | 

Additional structures

Row | SMILES | Potency | activity change, negative = inhibition
47 | Cc1c(CCC(=O)N[C@@H](CCCNC(N)=O)C(=O)O)c(=O)oc2cc3oc4c(c3cc12)CCCC4 | inconclusive: 89.1 µM [inhibitor, single point] | 
48 | COc1ccc(C2(C(=O)NCCCN(C)C)CCOCC2)cc1 | inconclusive: 89.1 µM [inhibitor, single point] | 
49 | Cc1cccc(C(=O)N2CCc3cc(CNC(=O)c4cc5ccccc5[nH]4)ccc32)c1 | inactive | 
50 | Cc1cccc(OC(=O)NCCOC(=O)N(O)c2ccc(Cl)cc2)c1 | inconclusive: 89.1 µM [inhibitor, single point] | 
51 | N#Cc1c(N2CCCC2)nc(N)c2c(N)nc(N3CCCC3)cc12 | inconclusive: 3.16 µM [inhibitor, full curve] | 
52 | COc1ccc(/C=C2\Oc3cc(OCC(N)=O)ccc3C2=O)cc1OC | inconclusive: 14.1 µM [inhibitor, single point] | 
53 | CCOC(=O)c1cc(-c2ccc(OC)cc2)n(CCC(=O)NCCc2ccccc2)c1C | inactive | 
54 | Cc1ccc(NC(=O)C2(C)Cc3ccccc3C(=O)O2)c(C)c1 (stereo not drawn) | inactive | 
55 | O=c1c2ccccc2oc2ccc(Oc3ccccc3)cc12 | inconclusive: 25.1 µM [inhibitor, single point] | 
56 | Cc1ccc(N(Cc2cc3ccc(C)cc3[nH]c2=O)S(C)(=O)=O)c(C)c1 | inactive | 
57 | CCCCc1ccc(-n2c(Cc3cccs3)n[nH]c2=S)cc1 | inconclusive: 0.158 µM [inhibitor, full curve] | 
58 | CCc1ccc2oc(-c3ccc(C)c(NC(=O)/C=C/c4ccco4)c3)nc2c1 |  | inconclusive: -47.9% [inhibitor]
59 | N#Cc1c(-c2ccc(Cl)cc2)cc(-c2cccs2)nc1SCC(=O)O |  | inconclusive: -101% [inhibitor]
60 | Cc1ccc(C)c(NC(=O)Cn2cc(C(=O)C3CC3)c3ccccc32)c1 | inconclusive: 44.7 µM [inhibitor, partial curve] | 
61 | COc1cccc(NC(=O)C2CCC(CNS(=O)(=O)c3ccc4c(c3)CCCC(=O)N4)CC2)c1 (stereo not drawn) | inconclusive: 89.1 µM [inhibitor, single point] | 
62 | CCn1cc(CNC(=O)c2cc(-c3ccc(C)cc3)nc3ccc(Br)cc23)c(C)n1 | inconclusive: 7.94 µM [inhibitor, full curve] | 
63 | COc1ccc(COc2ccsc2C(=O)Nc2ccc(Cl)c(Cl)c2)cc1 | active: 35.5 µM | 
64 | CSc1nc(NCCOCCO)c2sc3nc(-c4ccco4)c4c(c3c2n1)CCC4 | active: 3.55 µM | 
65 | O=C(COC(=O)c1ccc(Cl)nc1)Nc1cc(S(=O)(=O)N2CCCCC2)ccc1Cl | inconclusive: 89.1 µM [inhibitor, single point] | 
66 | CC(C)c1ccc(S(=O)(=O)/N=C2\C=C(NS(=O)(=O)c3ccccc3)C(=O)c3ccccc32)cc1 | inconclusive: 89.1 µM [inhibitor, single point] | 
67 | COc1ccc(Cl)cc1-n1cc(-c2ccccc2)nc1SCC(=O)Nc1ccc(C)cc1 | inactive | 
68 | O=C1NC(=Nc2ccccc2Cl)S/C1=C\c1cccc([N+](=O)[O-])c1 | inconclusive: 79.4 µM [inhibitor, partial curve, poor fit] | 

Pulled by compound from the list above:
Row | SMILES | Potency | activity change, negative = inhibition
55 | O=c1c2ccccc2oc2ccc(Oc3ccccc3)cc12 | inconclusive: 25.1 µM [inhibitor, single point] | 
64 | CSc1nc(NCCOCCO)c2sc3nc(-c4ccco4)c4c(c3c2n1)CCC4 | active: 3.55 µM | 
